The record followed here is PMC2576351.

These are yes or no findings as the source states them, for the method shown. In cells and extracts the contact can be indirect. Some entries that bind do so weakly or less than the wild type.

The target of this experiment is S-Tax (HTLV-1) (UniProt P03409). Description: pull-down; S-Tax expressed in 293T by transient transfection, no nuclear extracts added; lysate purified on S-protein agarose beads; SDS-PAGE and immunoblot with anti-DNA-PKcs; S-GFP as control. A general note: Immunoblotting shows a protein as a band on a membrane.

Turning to “DNA-dependent Protein Kinase catalytic subunit (DNA-PKcs) (from UniProt P78527 1-4128)”, the binding result was “binds”.
